This is an account of results in patent publication US20190040004A1, “NEW COMPOUNDS FOR THE TREATMENT AND/OR PREVENTION OF PARASITIC DISEASES AND METHOD OF PRODUCTION OF THEREOF” (INSTITUT DE RECHERCHE POUR LE DEVELOPPEMENT (I.R.D.), priority 2013, published 2019).

Test [1] deals with deacetylase activity in total protein extracts of T. gondii. Put plainly: Deacetylase activity in total protein extracts of T. gondii. Conditions: 125 nM. It counts as biochemical.
The test system of test [2] is HDAC activity from HELA nuclear extract. Particulars: read-out: HDAC inhibitory activity of SAHA (literature); Jiao et al., Eur. J. Med. Chem. 2009; cited from earlier work.
In test [3] the test system is Leishmania infantum luciferase expressing strain (MHOM/MA/ITMAP269). Put plainly: microbe, parasite or virus in culture. Conditions: antiparasitic activity, read-out: L. infantum IC50. It counts as cell-based. The method, then:
Leishmanicidal activity was determined according to a previously published protocol that used Leishmania infantum luciferase expressing strain (MHOM/MA/ITMAP269) (Sereno D & Lemesre J L, Antimicrob Agents Chemother 1997, 41(5): 972-976).
Antiparasitic activity of a compound is represented by ICo50, which is calculated with Prism software (Prism4 for MacOSX Version 5.0b, December 2008). The cytoxicity of a compound against the host cells of L. infantum and T. gondii, such as THP-1 or HFF cells, was determined with a MTT assay, according to previously described protocol (Sereno et al., Antimicrob Agents Chemother. 2001, 45(4):1168-73). THP-1 is derived from the peripheral blood ofa human with acute monocytic leukemia.

SMILES strings stand for the structures.

Turning to `O=C(CCCCCCC(=O)Nc1ccccc1)NO` [SAHA, suberoylanilide hydroxamic acid, reference compound], the “inhibition of T. gondii deacetylase activity” value in test [1] is 22%. For the same compound, the IC50 in test [2] is 1300 nM; in test [3] it was more than 100 µM.
